Experimental data reported in PubChem BioAssay AID2685 (National Center for Advancing Translational Sciences (NCATS), 2010).
In all, about 320,000 compounds went through this assay and about 2,100 (0.66%) were called active. Inconclusive means that the source gave no clear call. Such entries were picked first, then a sample of the others. Calls come from the whole dose curve; as a rule, active = well fitted inhibition curve with a large enough effect in the signal ratio, with a control signal flat (not every such curve was filed as active); inconclusive = small, poorly fitted or top-dose-only effect, or effect the other way, or a change in a side signal; inactive = flat fitted curve, though single readings scatter; the % refers to the signal ratio. Where the call is inconclusive, the potency comes from a doubtful curve fit.

Experiment: qHTS Assay for Lipid Storage Modulators in Drosophila S3 Cells
Settings: BODIPY lipid droplet fluorescence, 18-24 h, cells fed with added oleic acid; lipid storage change, negative = inhibition: at 46.1 µM (top of the series) unless noted
Outline: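 Drosophila S3 cells got compounds at several concentrations plus oleic acid (400 uM solution). Laser-scanning cytometry with 488 nm excitation read lipid droplets at 500-530 nm and cells at 575-640 nm. Percent activity was relative to 20 uM Triacsin C.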
% is set by controls: 0 for no effect and ±100 for the full control effect; potency is the fitted concentration of half-maximal effect.

Structure (SMILES)	lipid storage change, negative = inhibition	Potency	outcome
Nc1nc(CN2CCN(c3ccccn3)CC2)nc(Nc2ccc(F)cc2)n1	inconclusive: 115%		
Cc1ccccc1NC(=O)CSc1nnc(CNC(=O)c2ccco2)n1C	inconclusive		
Cc1cc(OCCCC(=O)Nc2cccc(-n3cnnn3)c2)ccc1Cl		active: 3.26 µM	
Cc1ccc2c(c1)c1c(n2CC(O)CNC(C)(C)C)CCCC1 (stereo not given)	inconclusive: -48.2%		
CCC(C)Nc1nc(N)c([N+](=O)[O-])c(N2CCCCCC2)n1 (stereo not given)	inconclusive: -9.24%		
Cc1cc(C(F)(F)F)nc(SCC(=O)Nc2nccs2)n1	inconclusive: 2.53%		
Cc1cccc2cc(CN(CC3CCCO3)S(=O)(=O)c3ccccc3)c(=O)[nH]c12 (stereo not given)		inconclusive: 20.6 µM [activator, partial curve]	
COc1cc(NC(=S)N(C)CCC#N)c(OC)cc1Cl	inactive: 6.78%		
CCOC(=O)C1=C(C)NC(=O)NC1c1ccc(OC(=O)c2ccco2)cc1 (stereo not given)	inactive: 3.41%		
CC1CCCC(NC(=O)CSc2nnc(C(F)(F)F)n2C)C1C (stereo not given)	inconclusive: 12.6%		
O=C(NCCN1CCCCC1)c1ccc(Oc2cc(Cl)cc(Cl)c2)o1		inconclusive: 18.4 µM [cytotoxic, single point]	
CCCn1nc(C(=O)N2CCc3ccccc32)c2ccccc2c1=O		inconclusive: 18.4 µM [falling, single point]	
COc1ccc(C(=O)OCc2nc(N)nc(Nc3ccccc3C)n2)cc1OC	inconclusive: 5.13%		
Cc1n[nH]c(C)c1CCN(C)C(=O)C1CCC(=O)N(CC2CCCCC2)C1 (stereo not given)		inconclusive: 16.4 µM [activator, single point]	
N#Cc1ccc(S(=O)(=O)N2CCCN(c3nc4ccc(Cl)cc4s3)CC2)cc1	inconclusive: 7.38%		
Cc1ccc(S(=O)(=O)Oc2ccc(/C=N/NC(=O)c3ccncc3)cc2)cc1	inconclusive: -32.1%		
CC1CN(c2cc(-c3ccccc3)c3ccccc3n2)CC(C)O1 (stereo not given)		inconclusive: 0.116 µM [falling, full curve, poor fit]	
O=[N+]([O-])c1cc(Cl)ccc1Oc1ccc(-c2nnco2)cc1	inconclusive: 3.11%		
O=C(NC(Cc1c[nH]c2ccccc12)C(=O)Nc1ccc(OC(F)(F)F)cc1)c1cccs1 (stereo not given)	inconclusive: -82.8%		
CCCN1CCN(C(=O)CCc2nnc3ccc(N4CCN(c5cccc(OC)c5)CC4)nn23)CC1		inconclusive: 14.6 µM [falling, single point]	
CC(=O)Nc1ccc(NC(=O)CSc2nnc(NC(=O)C3CC(=O)N(c4ccc(F)cc4)C3)s2)cc1 (stereo not given)	inconclusive: 70.3%		
COc1ccc(C(=O)Oc2ccc3ccc(=O)oc3c2)cc1OC	inconclusive: 13.3%		
CC(=O)N1CCc2cc(S(=O)(=O)N3CCCCC3C)ccc21 (stereo not given)		inconclusive: 2.91 µM [falling, single point]	
Cc1cccc(NC(=S)N2CCC(NC(=O)c3ccco3)CC2)c1	inconclusive: -12%		
CCOC(=O)N1CCN(Cc2nc3c(c(=O)n(C)c(=O)n3C)n2CCCc2ccccc2)CC1		inconclusive: 2.06 µM [activator, partial curve]	

Two entries drawn at random from those above, as already listed:
Structure (SMILES)	lipid storage change, negative = inhibition	Potency	outcome
Cc1ccccc1NC(=O)CSc1nnc(CNC(=O)c2ccco2)n1C	inconclusive		
COc1cc(NC(=S)N(C)CCC#N)c(OC)cc1Cl	inactive: 6.78%		

Three of these compounds, set out differently:
Structure (SMILES) | lipid storage change, negative = inhibition | Potency | outcome
CCCN1CCN(C(=O)CCc2nnc3ccc(N4CCN(c5cccc(OC)c5)CC4)nn23)CC1 |  | inconclusive: 14.6 µM [falling, single point] | 
CC(=O)Nc1ccc(NC(=O)CSc2nnc(NC(=O)C3CC(=O)N(c4ccc(F)cc4)C3)s2)cc1 (stereo not given) | inconclusive: 70.3% |  | 
COc1ccc(C(=O)Oc2ccc3ccc(=O)oc3c2)cc1OC | inconclusive: 13.3% |  | 

(next part)

Structure (SMILES)	lipid storage change, negative = inhibition	Potency	outcome
CC1CCN(S(=O)(=O)c2cc3c4c(c2)CCN4C(=O)CC3)CC1	inconclusive: 50.7%		
Brc1ccc(OCCOCCN2CCOCC2)cc1	inconclusive: 23.7%		
O=C(CSc1nnc(SCc2ccc(F)cc2)s1)Nc1ccc(C(=O)O)cc1	inconclusive: 15.1%		
COc1ccc(C)cc1NC(=O)CO/N=C(\N)CC(=O)Nc1ccccc1OC		inconclusive: 0.0046 µM [activator, full curve, poor fit]	
CCCc1cc(=O)oc2cc(C)cc(OCC(=O)NCc3cccnc3)c12			inactive [at 46.1 µM]
Cc1ccc(-c2nc3cnccn3c2Nc2ccc3c(c2)OCO3)cc1		inconclusive: 1.03 µM [activator, partial curve]	
COc1ccc(C2NC(=O)CCC2[N+](=O)[O-])cc1OC (stereo not given)		inconclusive: 1.3 µM [activator, full curve]	
O=C(O)c1cc(S(=O)(=O)N2CCOCC2)ccc1N1CCCCC1	inconclusive: -97.6%		
COc1ccc(CNCCNC(=O)c2cccs2)c(OC)c1OC	inconclusive: 24.3%		
Cc1ccc(-n2nc3c(=O)n(CC(=O)NCCC4=CCCCC4)nc(C)c3c2C)cc1		inconclusive: 2.91 µM [activator, partial curve]	
c1ccc2c(c1)OCC(c1nnc3sc(-c4ccc5c(c4)OCO5)nn13)O2 (stereo not given)		inconclusive: 3.66 µM [activator, single point]	
CC(=O)Nc1ccc(N=Cc2ccc(OCc3ccccc3)cc2)cc1	inconclusive: 27.4%		
CC(C)c1ccc(N(CC(=O)O)S(=O)(=O)c2cccnc2)cc1	inconclusive: 7.35%		
O=S(=O)(Nc1cccc2[nH]ncc12)c1cccs1	inconclusive: 16.8%		
O=C(Nc1ccc(F)cc1)N1CCN(c2ncccn2)CC1	inconclusive: 26.4%		
CC(C)(C(N)=O)N1CCN(c2ncc(C(F)(F)F)cc2Cl)CC1	inconclusive: -7.87%		
COC(=O)c1ccc(Oc2cc(C)nc(NCc3ccccc3)n2)cc1	inconclusive: 45.8%		
Cc1ccc(-n2cccc2/C=C2\C(=N)N3N=C(c4ccco4)SC3=NC2=O)cc1	inconclusive: -20.9%		
COc1ccc(OC)c(C2C(C(C)=O)=C(O)C(=O)N2CCC(=O)O)c1 (stereo not given)		inconclusive: 29.1 µM [falling, single point]	
CCC(C)C(NS(=O)(=O)c1ccc(C)cc1)C(=O)Oc1ccc2c3c(c(=O)oc2c1)CCC3 (stereo not given)	inconclusive: -20.2%		
O=C(CNC(=O)c1ccc(Cl)c([N+](=O)[O-])c1)OC1CCCCC1=O (stereo not given)	inconclusive: 6.61%		
Cc1ccc2nc(NS(=O)(=O)c3cn(C)nc3C)sc2c1	inconclusive: -100%		
CN(CC(=O)Nc1cccc(F)c1)C(=O)c1ccc(N2CCCCC2)c([N+](=O)[O-])c1		inconclusive: 10.3 µM [activator, single point]	
C=CCN(c1nc(C)c(Br)c(OC)n1)S(=O)(=O)c1ccc(C)cc1		inconclusive: 18.4 µM [activator, partial curve]	
NC(=O)c1ccccc1NC(=O)CSc1cn[nH]n1		inconclusive: 6.51 µM [activator, single point]	

Structure (SMILES)	lipid storage change, negative = inhibition	Potency	outcome
CC1CCN(C(=O)c2nc[nH]c2C(=O)N2CCC(C)CC2)CC1		inconclusive: 0.461 µM [activator, full curve, poor fit]	
CCOc1ccccc1NC(=O)NCCc1c[nH]c2ccccc12	inconclusive: -17.5%		
O=C(Nc1ccc(CSc2ccccc2)cc1)c1ccccc1	inconclusive: 0.981% [at 9.22 µM]		
COc1ccc(CC(=O)NNC(=O)c2ccoc2C)cc1OC	inconclusive: 15.1%		
CCOC(=O)N1CCN(S(=O)(=O)c2c(C)cc(C)cc2C)CC1	inconclusive: -1.03%		
Cc1ccc(S(=O)(=O)CCC(=O)N(C)c2c(N)n(Cc3ccccc3)c(=O)[nH]c2=O)cc1	inconclusive		
Clc1ccc(Cl)c(-c2ccc(/C=N/c3ncn[nH]3)o2)c1	inconclusive: 6.76%		
CC(=O)c1cccc(NC(=O)N(c2ccccc2)c2ccccc2)c1	inconclusive: -16.8%		
O=C(NCc1ccco1)c1ccc(CS(=O)(=O)Cc2ccc(Cl)cc2)o1		inconclusive: 9.2 µM [activator, partial curve, poor fit]	
CCC1C/C(=C\c2cccnc2)C(=O)/C(=C/c2cccnc2)C1 (stereo not given)	inconclusive: -48.5%		
Cc1ccccc1N(CC(=O)NC1CCCC1)C(=O)C1(C)CC(=O)N=C2C=CC(Cl)=CN21 (stereo not given)	inconclusive: -3.65%		
CCCCn1nnc(NC(=O)c2ccc(-c3ccccc3[N+](=O)[O-])o2)n1	inconclusive: 30.7% [at 0.00295 µM]		
C/C(=N\NC(=O)OC(C)(C)C)c1ccc(-n2ccnc2)cc1	inconclusive: -24.7%		
COc1ccc(/C=N\NC(=O)c2c(C)nc3ccc(Br)cn23)cc1	inconclusive: 37.7%		
CC(=O)c1cnc(-c2ccccc2Cl)s1	inconclusive: 28% [at 9.22 µM]		
COc1ccc(/C=N/NS(=O)(=O)c2ccc(NC(C)=O)cc2)cc1		inconclusive: 0.731 µM [activator, full curve, poor fit]	
CCOc1ccc(CN(C)C(=O)CNC(=O)c2ccc(Br)o2)cc1OC	inconclusive: -23.1%		
CCC(C)NC(=O)CN(C)S(=O)(=O)c1ccc2c(c1)c(=O)n(C)c(=O)n2C (stereo not given)		inconclusive: 0.461 µM [activator, full curve, poor fit]	
CCCCC(C(=O)NC(=O)NCc1ccccc1)N1C(=O)c2ccccc2C1=O (stereo not given)	inconclusive: -34.6%		
C#CCOCCOCCOCCNc1nc(N2CCN(C(=O)CCCCCCCCCCNC(=O)Cn3cc(CCCCCN)nn3)CC2)nc(N2CCN(C(=O)CCCCCCCCCCNC(=O)[C@@H](CCSC)n3cc(CCO)nn3)CC2)n1	inconclusive: 15.7%		
CC(=O)Nc1cccc(NC(=O)C2CC(=O)N(C3CCCCC3)C2)c1 (stereo not given)	inconclusive: 21.3%		
Cc1ccc(NC(=O)Cn2ncc(Cl)c(Cl)c2=O)cc1S(=O)(=O)N1CCCCC1		inconclusive: 0.58 µM [falling, full curve]	
O=[N+]([O-])c1ccc(S(=O)(=O)Nc2ccccn2)cc1	inconclusive: 7.67%		
O=C(O)C1CC(=O)N(c2ccc(OCc3ccccc3Cl)cc2)C1 (stereo not given)		inconclusive: 0.0058 µM [falling, full curve, poor fit]	
CCN(CC(=O)Nc1cc(Cl)ccc1Cl)C(=O)c1ccc(-n2cccn2)cc1	inconclusive: 7.44%		
